Library screen at single concentrations

Protein sequences, listed by entry. Tags and fused reporters are not part of them. Residues count along the entry.
UniProt Q4DA54, 1-478: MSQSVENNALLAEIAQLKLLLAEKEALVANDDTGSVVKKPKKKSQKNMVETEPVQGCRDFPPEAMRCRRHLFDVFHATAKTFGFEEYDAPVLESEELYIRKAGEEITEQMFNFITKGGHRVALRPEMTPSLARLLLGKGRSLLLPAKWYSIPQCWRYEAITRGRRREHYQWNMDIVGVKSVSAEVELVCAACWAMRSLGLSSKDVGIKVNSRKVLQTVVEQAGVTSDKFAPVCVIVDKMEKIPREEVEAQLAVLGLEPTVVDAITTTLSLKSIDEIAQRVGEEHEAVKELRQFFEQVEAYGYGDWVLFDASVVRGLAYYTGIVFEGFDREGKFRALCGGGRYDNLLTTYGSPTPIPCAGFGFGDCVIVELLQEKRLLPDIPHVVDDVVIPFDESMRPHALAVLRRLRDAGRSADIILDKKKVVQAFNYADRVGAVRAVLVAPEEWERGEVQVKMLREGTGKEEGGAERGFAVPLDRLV
UniProt A4I591, 1-473: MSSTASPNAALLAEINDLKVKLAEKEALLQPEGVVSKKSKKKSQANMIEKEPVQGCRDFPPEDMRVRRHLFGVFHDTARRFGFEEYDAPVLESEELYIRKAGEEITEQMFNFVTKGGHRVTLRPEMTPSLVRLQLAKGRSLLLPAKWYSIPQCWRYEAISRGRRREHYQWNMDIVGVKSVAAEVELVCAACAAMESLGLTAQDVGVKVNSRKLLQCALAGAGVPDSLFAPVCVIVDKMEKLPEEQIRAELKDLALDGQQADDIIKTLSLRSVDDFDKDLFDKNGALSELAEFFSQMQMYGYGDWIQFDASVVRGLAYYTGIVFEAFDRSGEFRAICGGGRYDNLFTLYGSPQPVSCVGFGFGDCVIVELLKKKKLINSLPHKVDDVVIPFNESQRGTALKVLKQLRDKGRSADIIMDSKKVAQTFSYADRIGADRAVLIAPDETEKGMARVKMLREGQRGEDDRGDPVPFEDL

T. brucei: 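Whole-parasite assay of Trypanosoma brucei over 72 hours; the read-out is not stated. Compounds at 30 µM. The record gives no direction; compounds that gave an IC50 in retests scored well above the rest, so higher reads as stronger inhibition. Values scatter widely below zero; nearly all retest evidence comes from the higher of the two concentrations used. Of about 64,000 compounds tested this way, about 940 (1.5%) reached 50% or more in at least one test.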
TcHisRS: 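Enzyme assay of histidyl-tRNA synthetase; the read-out is not stated. Target: Histidine-tRNA ligase, Trypanosoma cruzi CL Brener (UniProt Q4DA54). Concentration: 30 µM. The record gives no direction; compounds that gave an IC50 in retests scored well above the rest, so higher reads as stronger inhibition. Size under these conditions: about 69,000 compounds, about 31 of them at 50% or above in at least one test.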
LiHisRS: 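Enzyme assay of histidyl-tRNA synthetase; the read-out is not stated. Target: Histidine-tRNA ligase, Leishmania infantum (UniProt A4I591). Compounds at 30 µM. Direction is inferred from retests: higher values go with stronger inhibition. The assay is labelled LdHisRS but filed under L. infantum. Size under these conditions: about 69,000 compounds, about 410 of them at 50% or above in at least one test.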

The filed quantity is “Percent Effect” (%). How 0% and 100% were set is not recorded. Most values in the screen are low, and negative values occur. Compounds were drawn at random from those tested, without regard to their results.

Result for O=C(N[C@H]1CCCC[C@@H]1O)c1ccc2nc(-c3ccccc3)[nH]c2c1 was T. brucei: -19.45%; TcHisRS: 7.955%; LiHisRS: 3.96%.
Result for CN(Cc1ccc2c(c1)OCO2)Cc1nc(-c2ccco2)no1 was T. brucei: -13.41%; TcHisRS: 4.516%; LiHisRS: 21.21%.
Result for O=c1[nH]c2c(c(=O)n1C1CCCCC1)CCC2Nc1ccccc1 (configuration not stated) was T. brucei: -8.417%; TcHisRS: 4.918%; LiHisRS: 1.942%.
Result for COc1ccc(Cl)cc1NC(=O)CCC1CCCN(Cc2ncon2)C1 (configuration not stated) was T. brucei: -6.285%; TcHisRS: 1.136%; LiHisRS: 25%.
Result for COc1ccc(C(=O)CNC(=O)c2nc(Cl)sc2C(C)C)cc1 was T. brucei: 6.812%; TcHisRS: 6.186%; LiHisRS: 23.08%.
Result for CC(C)Cc1nc(CCn2ccc(=O)[nH]c2=O)n(-c2ccccn2)n1 was T. brucei: -28.28%; TcHisRS: 2.89%; LiHisRS: 9.333%.
Result for COc1ccc(F)c(CN2CCC(c3cc(O)nc(C)n3)C2)c1.O=C(O)CC(O)(CC(=O)O)C(=O)O (configuration not stated) was T. brucei: -17.6%.
Result for O=C(NC1CCCC1)c1n[nH]c2c1CNCC2 was T. brucei: -18.58%; TcHisRS: 1.942%; LiHisRS: 5.825%.
Result for [H][C@@]12CCN(C[C@@H]1CN1CCC(C)CC1)[C@@H](CNC(=O)Nc1ccsc1)C2 was T. brucei: -36.49%.
Result for CCOC(=O)N(C)CC(=O)NCCc1coc(-c2ccc(C)cc2)n1 was T. brucei: -18.28%; TcHisRS: 10.5%; LiHisRS: 5.181%.
Result for [H][C@]12CC[C@]([H])(CN(S(C)(=O)=O)C1)N(CCC(=O)NCc1ccccc1F)C2 was T. brucei: -10.86%.
Result for CNc1nccnc1C1CCN(C(C)C)CC1 was T. brucei: -22.15%; TcHisRS: 4.255%; LiHisRS: -1.042%.
Result for CN(CCCNC(=O)Nc1ccc(C#N)cc1)CC(F)(F)F was T. brucei: -42.52%; TcHisRS: -7.216%; LiHisRS: 6.452%.
Result for O=C(c1ccc(C2CCCN2)s1)N1CCN(C(=O)N2CCOCC2)CC1 (configuration not stated) was T. brucei: 8.304%; TcHisRS: -3.352%; LiHisRS: 2.083%.
Result for CN1C(=O)CC2(CCN(S(=O)(=O)c3cccs3)CC2)c2ccccc21 was T. brucei: -78.82%; TcHisRS: 3.797%; LiHisRS: 22.41%.
Result for Cn1cc(-c2ncnc3c2CCN(C(=O)c2cnccn2)CC3)cn1 was T. brucei: -23.39%; TcHisRS: 10.28%; LiHisRS: 15.28%.
Result for Cc1nc(C)n(CC2CCCCN2CCCN2CCCC2=O)n1 (configuration not stated) was T. brucei: -55.02%; TcHisRS: 7.216%; LiHisRS: 3.226%.
Result for CCc1nc(C2CCCN2C(=O)CCCn2cccn2)no1 (configuration not stated) was T. brucei: -0.2675%; TcHisRS: -1.141%; LiHisRS: 3.125%.
Result for O=C(O)COc1ccccc1CN1CCCC1c1ccncn1 (configuration not stated) was T. brucei: 17.32%; TcHisRS: 9.738%; LiHisRS: 16%.
Result for Cc1ccc(CN2CCC[C@]3(C(=O)O)CN(CC4CC4)C[C@@H]3C2)s1 was TcHisRS: -3.175%; LiHisRS: -0.9091%.
Result for CN(C)c1ccc(C(=O)NCc2cccnc2-n2cncn2)cc1F was T. brucei: 1.919%; TcHisRS: 1.205%; LiHisRS: 20.51%.
Result for CC(=O)NC1CCN(C(=O)c2cnc(COc3ccccc3)nc2O)C1 (configuration not stated) was T. brucei: -16.73%; TcHisRS: 6.349%; LiHisRS: 3.03%.
Result for Cn1nccc1C(=O)N1CCC(c2ncc(Cl)cc2S(C)(=O)=O)CC1 was T. brucei: -15.17%; TcHisRS: 2.273%; LiHisRS: 0%.
Result for CC(C)CCN1CCc2cc(C(=O)N(C)C)c(NCC3CC3)nc2CC1.O=C(O)C(F)(F)F.O=C(O)C(F)(F)F was T. brucei: -42.24%.
Result for COc1c(CNCCNC(=O)c2ccc(C)cc2)c(C)nn1C was T. brucei: 16.65%; TcHisRS: 0.3831%; LiHisRS: 21.54%.
Result for Cc1ccc([C@@H]2CN(C(=O)c3cc[nH]c3)C[C@H]2NC(=O)C2CC2)cc1 was T. brucei: -26.58%; TcHisRS: 2.041%; LiHisRS: 13.89%.
Result for Cc1ccc(CNC(=O)C2c3c(ncn3C(C)C)CCN2S(C)(=O)=O)o1 (configuration not stated) was T. brucei: -52.78%; TcHisRS: 5.063%; LiHisRS: 15.52%.
Result for CCn1ncc2c1C(COCC1CC1)CN(S(=O)(=O)N(C)C)C2 (configuration not stated) was TcHisRS: 3.306%; LiHisRS: 22.86%.
Result for O=C(c1ccccc1-c1ccccc1)N1C[C@@H]2CNC[C@]2(C(=O)O)C1 was TcHisRS: 3.226%; LiHisRS: 15.79%.
Result for CCc1nccn1C1CCCN(C(=O)c2cnn3cccnc23)C1 (configuration not stated) was T. brucei: -28.23%; TcHisRS: 1.453%; LiHisRS: 13.16%.
Result for CCC[C@H]1CN(Cc2ccccc2C#N)C[C@@H]1NS(C)(=O)=O was T. brucei: -19.15%; TcHisRS: -0.4808%; LiHisRS: 4.878%.
Result for Cc1cnn(C2CN(CC(=O)NCc3ccccn3)C2)c1 was T. brucei: -11.49%; TcHisRS: -0.7576%; LiHisRS: 46.97%.
Result for O=C(CCc1cccs1)N1CCCCC1Cn1cccn1 (configuration not stated) was T. brucei: -20.65%; TcHisRS: -0.3774%; LiHisRS: 8%.
Result for O=C(O)C(c1ccc2[nH]ccc2c1)N1CCOCC1 (configuration not stated) was T. brucei: -41.2%; TcHisRS: 3.261%; LiHisRS: 12.12%.

4 of the entries, repeated:

| SMILES | T. brucei | TcHisRS | LiHisRS |
|---|---|---|---|
| `CC(C)Cc1nc(CCn2ccc(=O)[nH]c2=O)n(-c2ccccn2)n1` | -28.28 | 2.89 | 9.333 |
| `CN(Cc1ccc2c(c1)OCO2)Cc1nc(-c2ccco2)no1` | -13.41 | 4.516 | 21.21 |
| `O=C(CCc1cccs1)N1CCCCC1Cn1cccn1` (configuration not stated) | -20.65 | -0.3774 | 8 |
| `O=C(N[C@H]1CCCC[C@@H]1O)c1ccc2nc(-c3ccccc3)[nH]c2c1` | -19.45 | 7.955 | 3.96 |

The values are deposited in ChEMBL (CHEMBL3988442, “University of Dundee, Small-Polar-MMV Screening Library” (2021)).